From article PMC9303297, “Characterization of an autonomous pathway complex that promotes flowering in Arabidopsis” (Nucleic Acids Research, 2022)
Like-named read-outs stand apart in the source and are kept apart here. Results are given in words; binding and its absence hold for the method and conditions named. In cells and extracts the contact can be indirect. Here binding means that the protein was enriched with, or labelled near, the bait; the list need not be complete. Tags and fused reporters may be left off the sequences shown. Blank lines part the entries; values can stand above or below the molecule they belong to.

Protein sequences, listed by entry. Tags and fused reporters are not part of them. Lines headed by an entry give the natural chain unless they say otherwise; changes in a name come on top.
UniProt Q9XIE1: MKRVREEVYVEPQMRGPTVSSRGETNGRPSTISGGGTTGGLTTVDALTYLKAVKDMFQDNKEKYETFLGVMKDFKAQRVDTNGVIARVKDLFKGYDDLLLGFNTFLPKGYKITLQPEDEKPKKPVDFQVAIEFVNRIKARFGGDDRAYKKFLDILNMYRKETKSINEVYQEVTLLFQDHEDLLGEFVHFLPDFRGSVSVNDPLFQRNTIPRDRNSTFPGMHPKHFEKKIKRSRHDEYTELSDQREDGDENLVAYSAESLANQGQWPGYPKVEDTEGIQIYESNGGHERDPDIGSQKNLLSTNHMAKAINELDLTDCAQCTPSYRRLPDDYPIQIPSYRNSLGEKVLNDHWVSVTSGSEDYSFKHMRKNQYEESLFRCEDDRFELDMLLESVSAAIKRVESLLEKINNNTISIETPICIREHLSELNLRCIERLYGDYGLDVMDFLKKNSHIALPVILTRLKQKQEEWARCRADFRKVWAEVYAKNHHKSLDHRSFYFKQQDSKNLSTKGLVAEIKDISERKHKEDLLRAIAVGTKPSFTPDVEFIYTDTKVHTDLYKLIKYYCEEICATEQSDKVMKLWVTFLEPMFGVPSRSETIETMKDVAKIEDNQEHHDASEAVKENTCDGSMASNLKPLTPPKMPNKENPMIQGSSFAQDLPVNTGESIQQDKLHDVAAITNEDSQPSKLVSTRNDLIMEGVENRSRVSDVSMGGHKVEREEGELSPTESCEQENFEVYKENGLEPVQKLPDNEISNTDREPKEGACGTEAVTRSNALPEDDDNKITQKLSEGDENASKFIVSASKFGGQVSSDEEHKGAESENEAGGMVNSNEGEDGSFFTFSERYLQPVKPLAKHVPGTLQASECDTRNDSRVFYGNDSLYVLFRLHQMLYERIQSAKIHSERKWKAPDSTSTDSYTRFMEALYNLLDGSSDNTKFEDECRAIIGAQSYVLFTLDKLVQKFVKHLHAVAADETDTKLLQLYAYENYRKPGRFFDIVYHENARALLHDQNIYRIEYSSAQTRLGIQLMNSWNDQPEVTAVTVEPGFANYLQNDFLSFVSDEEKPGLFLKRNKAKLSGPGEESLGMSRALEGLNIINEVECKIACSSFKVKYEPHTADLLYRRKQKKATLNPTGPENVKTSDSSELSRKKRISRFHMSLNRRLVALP
UniProt Q9XIK6: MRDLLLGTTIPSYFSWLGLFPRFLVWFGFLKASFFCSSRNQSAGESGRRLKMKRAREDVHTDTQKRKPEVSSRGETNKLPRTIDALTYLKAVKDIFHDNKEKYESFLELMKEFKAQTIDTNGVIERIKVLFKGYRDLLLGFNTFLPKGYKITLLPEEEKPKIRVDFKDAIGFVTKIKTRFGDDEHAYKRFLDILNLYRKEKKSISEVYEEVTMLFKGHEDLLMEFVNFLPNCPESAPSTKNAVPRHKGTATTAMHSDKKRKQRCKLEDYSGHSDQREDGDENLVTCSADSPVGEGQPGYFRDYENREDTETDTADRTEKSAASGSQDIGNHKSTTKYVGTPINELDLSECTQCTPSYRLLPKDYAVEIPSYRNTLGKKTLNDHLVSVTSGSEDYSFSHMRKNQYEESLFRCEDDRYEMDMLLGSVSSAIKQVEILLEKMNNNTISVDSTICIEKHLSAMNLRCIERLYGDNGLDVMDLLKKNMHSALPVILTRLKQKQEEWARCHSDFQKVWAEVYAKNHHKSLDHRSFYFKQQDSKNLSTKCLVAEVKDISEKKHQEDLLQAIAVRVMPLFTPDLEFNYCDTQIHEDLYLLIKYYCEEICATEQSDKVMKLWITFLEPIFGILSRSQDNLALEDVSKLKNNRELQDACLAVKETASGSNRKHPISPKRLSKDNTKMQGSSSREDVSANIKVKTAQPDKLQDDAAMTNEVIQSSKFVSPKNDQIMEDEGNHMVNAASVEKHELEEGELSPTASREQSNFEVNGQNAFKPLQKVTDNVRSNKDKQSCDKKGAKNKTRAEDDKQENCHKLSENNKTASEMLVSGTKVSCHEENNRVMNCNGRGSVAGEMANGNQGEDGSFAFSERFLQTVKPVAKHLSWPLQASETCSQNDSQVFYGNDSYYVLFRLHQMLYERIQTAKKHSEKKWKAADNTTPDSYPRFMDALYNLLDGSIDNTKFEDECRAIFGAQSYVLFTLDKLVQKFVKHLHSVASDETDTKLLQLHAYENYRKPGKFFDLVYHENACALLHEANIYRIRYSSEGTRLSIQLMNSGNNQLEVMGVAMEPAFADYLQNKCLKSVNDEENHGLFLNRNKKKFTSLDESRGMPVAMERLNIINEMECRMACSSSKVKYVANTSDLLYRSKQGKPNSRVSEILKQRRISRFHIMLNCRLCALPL
UniProt F4KB26: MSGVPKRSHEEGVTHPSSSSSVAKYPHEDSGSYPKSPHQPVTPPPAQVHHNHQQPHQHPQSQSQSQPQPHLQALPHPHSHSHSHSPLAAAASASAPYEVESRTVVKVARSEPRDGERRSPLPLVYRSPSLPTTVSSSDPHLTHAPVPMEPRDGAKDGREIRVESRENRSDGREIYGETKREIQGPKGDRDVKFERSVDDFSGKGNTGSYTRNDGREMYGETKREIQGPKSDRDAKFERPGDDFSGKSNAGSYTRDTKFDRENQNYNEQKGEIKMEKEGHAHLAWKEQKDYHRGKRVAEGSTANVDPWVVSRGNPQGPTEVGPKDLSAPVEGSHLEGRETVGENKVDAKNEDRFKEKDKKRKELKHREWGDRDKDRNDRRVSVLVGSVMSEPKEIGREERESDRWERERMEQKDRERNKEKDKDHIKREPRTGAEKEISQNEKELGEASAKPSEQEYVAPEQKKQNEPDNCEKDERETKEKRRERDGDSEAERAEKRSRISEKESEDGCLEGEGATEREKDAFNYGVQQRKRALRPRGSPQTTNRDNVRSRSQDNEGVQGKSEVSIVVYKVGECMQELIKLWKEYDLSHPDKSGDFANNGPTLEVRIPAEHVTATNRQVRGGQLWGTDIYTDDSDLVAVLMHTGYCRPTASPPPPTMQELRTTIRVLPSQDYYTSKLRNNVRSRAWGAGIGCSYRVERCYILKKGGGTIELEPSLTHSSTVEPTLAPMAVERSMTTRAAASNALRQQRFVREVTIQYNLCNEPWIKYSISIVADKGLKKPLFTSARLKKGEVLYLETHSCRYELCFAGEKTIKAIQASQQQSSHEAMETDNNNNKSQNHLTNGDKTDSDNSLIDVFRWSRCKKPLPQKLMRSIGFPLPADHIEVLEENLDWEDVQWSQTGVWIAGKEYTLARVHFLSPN

Assays:
Assay in all cases: affinity purification with mass spectrometry; 3×Flag-tagged bait from inflorescence of transgenic Arabidopsis (WT, sdg26 and fld backgrounds) bound to ANTI-FLAG M2 agarose at 4°C, lysis buffer 50 mM Tris-HCl pH 7.6, 150 mM NaCl, 0.1% NP-40; eluted with 3×Flag peptides
[1] = target: T1, EFL2 (ELF4-like protein), EFL2-3×Flag in transgenic Arabidopsis (Arabidopsis thaliana) (UniProt Q94BS8)
T1 sequence: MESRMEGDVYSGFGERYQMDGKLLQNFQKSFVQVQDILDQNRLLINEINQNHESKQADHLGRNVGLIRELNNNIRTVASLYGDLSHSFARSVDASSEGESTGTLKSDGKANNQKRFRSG

[2] = target: T2, EFL4 (ELF4-like protein), EFL4-3×Flag in transgenic Arabidopsis (Arabidopsis thaliana) (UniProt Q570U6)
T2 sequence: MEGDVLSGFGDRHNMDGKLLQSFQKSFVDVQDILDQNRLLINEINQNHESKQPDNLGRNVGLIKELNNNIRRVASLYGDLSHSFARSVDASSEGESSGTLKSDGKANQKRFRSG

[3] = target: T1, EFL2 (ELF4-like protein), EFL2-3×Flag in transgenic Arabidopsis (Arabidopsis thaliana); remark: listed apart in the source
[4] = target: T2, EFL4 (ELF4-like protein), EFL4-3×Flag in transgenic Arabidopsis (Arabidopsis thaliana); remark: listed apart in the source
[5] = target: T3, LD (LU…), LD-3×Flag in transgenic Arabidopsis (Arabidopsis thaliana) (UniProt Q38796)
T3 sequence: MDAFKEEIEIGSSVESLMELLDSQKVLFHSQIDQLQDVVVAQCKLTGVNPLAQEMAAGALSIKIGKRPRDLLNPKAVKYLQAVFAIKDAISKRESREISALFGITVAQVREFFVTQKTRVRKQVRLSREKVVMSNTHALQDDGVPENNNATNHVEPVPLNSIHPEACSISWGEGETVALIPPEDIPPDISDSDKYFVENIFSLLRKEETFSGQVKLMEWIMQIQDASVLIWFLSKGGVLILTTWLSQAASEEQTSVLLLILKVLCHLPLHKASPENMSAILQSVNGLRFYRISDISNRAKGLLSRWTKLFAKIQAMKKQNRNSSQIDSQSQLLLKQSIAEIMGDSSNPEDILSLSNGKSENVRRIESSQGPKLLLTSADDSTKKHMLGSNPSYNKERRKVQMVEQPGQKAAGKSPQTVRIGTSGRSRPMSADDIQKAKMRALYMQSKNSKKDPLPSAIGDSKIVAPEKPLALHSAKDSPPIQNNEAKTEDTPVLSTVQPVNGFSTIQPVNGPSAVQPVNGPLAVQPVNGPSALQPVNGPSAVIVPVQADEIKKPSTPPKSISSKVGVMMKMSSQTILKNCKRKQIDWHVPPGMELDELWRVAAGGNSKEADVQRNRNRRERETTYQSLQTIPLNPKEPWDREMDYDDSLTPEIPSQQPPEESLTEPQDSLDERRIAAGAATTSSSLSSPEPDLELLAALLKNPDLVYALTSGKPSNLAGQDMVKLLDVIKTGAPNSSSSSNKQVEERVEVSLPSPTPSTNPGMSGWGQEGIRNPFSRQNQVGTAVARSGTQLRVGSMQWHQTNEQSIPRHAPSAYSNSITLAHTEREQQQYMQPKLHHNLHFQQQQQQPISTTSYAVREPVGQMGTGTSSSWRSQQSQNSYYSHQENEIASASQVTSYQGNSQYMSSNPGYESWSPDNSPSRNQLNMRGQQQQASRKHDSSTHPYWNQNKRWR

[6] = target: T4, SDG26, SDG26-3×Flag in transgenic Arabidopsis (Arabidopsis thaliana) (UniProt Q84WW6)
T4 sequence: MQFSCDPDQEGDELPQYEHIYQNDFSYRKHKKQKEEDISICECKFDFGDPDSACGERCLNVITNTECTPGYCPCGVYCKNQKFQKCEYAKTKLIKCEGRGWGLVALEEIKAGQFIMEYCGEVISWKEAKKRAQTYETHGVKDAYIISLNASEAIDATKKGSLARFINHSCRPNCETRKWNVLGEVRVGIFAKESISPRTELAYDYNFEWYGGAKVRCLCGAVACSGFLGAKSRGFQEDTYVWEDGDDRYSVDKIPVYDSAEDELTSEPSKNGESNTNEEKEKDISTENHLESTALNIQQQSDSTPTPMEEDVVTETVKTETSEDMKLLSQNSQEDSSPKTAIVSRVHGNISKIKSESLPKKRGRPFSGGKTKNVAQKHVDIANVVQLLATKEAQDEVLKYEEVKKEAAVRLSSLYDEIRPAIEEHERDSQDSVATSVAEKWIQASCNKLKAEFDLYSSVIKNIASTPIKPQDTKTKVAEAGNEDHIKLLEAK

binding [1]: binds
binding [2]: binds
Molecule: SNL5 (histone deacetylase complex component) (from UniProt Q9XIE1 1-1162)

binding [1]: binds
binding [2]: binds
Molecule: SNL6 (histone deacetylase complex component) (from UniProt Q9XIK6 1-1173)

binding [1]: binds
binding [2]: binds
Molecule: HDC1 (histone deacetylase complex component) (from UniProt F4KB26)

binding [3]: binds
binding [4]: binds
binding [6]: binds
B1: GST-FLD, full-length (natural protein, Arabidopsis thaliana, UniProt Q9CAE3 1-789, looked up)
chain: MVSFSAPKKRRRGRSQRSMSSLNSLPVPNVGLLPGNSNFVSSSASSSGRFNVEVVNGSNQTVKSYPGIGDEIITINKEATTEALLALTAGFPADSLTEEEIEFGVVPIVGGIEQVNYILIRNHIISKWRENISSWVTKEMFLNSIPKHCSSLLDSAYNYLVTHGYINFGIAQAIKDKFPAQSSKSSVIIVGAGLSGLAAARQLMRFGFKVTVLEGRKRPGGRVYTKKMEANRVGAAADLGGSVLTGTLGNPLGIIARQLGSSLYKVRDKCPLYRVDGKPVDPDVDIKVEVAFNQLLDKASKLRQLMGDVSMDVSLGAALETFRQVSGNDVATEEMGLFNWHLANLEYANAGLVSKLSLAFWDQDDPYDMGGDHCFLPGGNGRLVQALAENVPILYEKTVQTIRYGSNGVKVTAGNQVYEGDMVLCTVPLGVLKNGSIKFVPELPQRKLDCIKRLGFGLLNKVAMLFPYVFWSTDLDTFGHLTEDPNYRGEFFLFYSYAPVAGGALLIALVAGEAAHKFETMPPTDAVTRVLHILRGIYEPQGINVPDPLQTVCTRWGGDPFSLGSYSNVAVGASGDDYDILAESVGDGRLFFAGEATTRRYPATMHGAFVTGLREAANMAQSAKARGIRKRIDRNPSRNAHSCAILLADLFRDPDLEFGSFCIIFSRRNPDPKSPAILRVTLSEPRKRNEDPKADQHSNKILFQQLQSHFNQQQQIQVYTLLTRQQALDLREVRGGDEKRLYYLCETLGVKLVGRKGLGVGADSVIASIKAERTGRKLPSSSTSGTKSG
notes: FLD (FLOWERING LOCUS D), Arabidopsis thaliana; cDNA encoding full-length FLD in pGEX-6P-1; source: E. coli Transetta (DE3), purified (Glutathione Sepharose 4B)
binding [5]: binds
